Measurements taken from patent publication US20190049459A1 (TOKYO INSTITUTE OF TECHNOLOGY, published 2019).
Results are given in words; binding and its absence hold for the method and conditions named. Some entries that bind do so weakly or less than the wild type. Sequences can lack the tags named with a protein.

Protein sequences, listed by entry. Tags and fused reporters are not part of them. Residues count along the entry.
UniProt Q07021, residues 74-282: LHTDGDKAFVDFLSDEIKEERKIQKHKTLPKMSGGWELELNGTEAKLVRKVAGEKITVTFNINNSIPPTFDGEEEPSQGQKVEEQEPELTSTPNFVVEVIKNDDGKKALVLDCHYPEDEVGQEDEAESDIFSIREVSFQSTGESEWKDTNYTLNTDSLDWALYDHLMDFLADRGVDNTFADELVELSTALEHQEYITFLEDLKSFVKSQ

Assays:
[1] = target: T1, peroxiredoxin (UniProt Q06830); test: immunoprecipitation, western blot with anti-peroxiredoxin antibody
T1 sequence (looked up): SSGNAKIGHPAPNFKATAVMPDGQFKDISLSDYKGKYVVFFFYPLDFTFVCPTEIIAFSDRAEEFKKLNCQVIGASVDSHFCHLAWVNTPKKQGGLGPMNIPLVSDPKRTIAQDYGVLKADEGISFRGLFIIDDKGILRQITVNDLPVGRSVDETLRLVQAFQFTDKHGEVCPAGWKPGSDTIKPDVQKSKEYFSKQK

[2] = target: C1QBP (Q Subcomponent Binding Protein) (UniProt Q07021); test: immunoprecipitation, western blot with anti-C1QBP antibody (Santa Cruz)
[3] = target: ATP synthase beta (human) (UniProt P06576); test: anti-FLAG immunoprecipitation from HEK 293 T lysate, western blot with anti-ATPB antibody

B1: FLAG-tagged ouORF7p (protein derived from ouORF7) (protein, not shown: small tags and cut ends)
chain: MSAGRASGALSRTRTPLEPEPQQKPEPEPNHRCSPLNPGGALARARPPGPHVGTTA
[1]
  binding: binds

## MRKGARRLCPAARVSMERRRPRLLRRRLRQWRWRPFLKKWTSSPPHTGG (peptide, not shown: small tags and cut ends) [FLAG-tagged ouORF21p (protein derived from ouORF21)]
[2]
  binding: binds

B2: FLAG-tagged uORF44p (protein derived from uORF44, an upstream ORF in the mRNA of ARHGEF9) (other, not shown: small tags and cut ends)
chain: MDSLTEQRLTSPNLPAPHLEHYSVLHCTMTLDVQTVVVFAVIVVLLLVNVILMFFLGTR
notes: Expressed from a pcDNA3 FLAG vector in HEK 293 T cells; also called uORF44 protein; mental activity-related protein
[3]
  binding: no binding
